Patent publication US20090088417A1, “VANILLOID RECEPTOR ANTAGONIST FOR PREVENTION AND TREATMENT OF DRUG DEPENDENCE AND ADDICTION” (priority 2006, published 2009)
At least one structure is not confirmed: it was looked up by name or label, or the drawing left a doubt.

Assays:
[1] = test system: male ICR mouse; assay: Conditioned place preference (CPP) test, development of psychological dependence on cocaine; format: in vivo; conditions: cocaine 15 mg/kg i.p. alone; ninth day; p<0.001 vs saline
Description: In the present invention, a conditioned place preference (CPP) test is used to monitor the degree of alleviation in drug dependence and addiction. The CPP system used in the present invention includes a white box, a black box and a pathway connecting the two boxes with each other. Mice are used as test animals and effects on preference/aversion are analyzed by measuring residence times of the mice in the two boxes.
Development of psychological dependence on cocaine was determined according to the CPP (conditioned place preference) test. […]
Step 1 (Basic Test): On the first day of the test, the Guillotine door between the two boxes was opened, and a male ICR mouse having a body weight of 20˜25 g made available by MJ Ltd. (Seoul) was accommodated in the CPP system so that it could move freely therein for 5 minutes. […] Then, residence times of the mouse in the two boxes were measured for 15 minutes to obtain reference values. […]
Step 3 (Test Step): On the ninth day of the test, the Guillotine door between the two boxes was opened, a pathway was provided in the middle of the boxes, and then a mouse, to which no drug was administered, was allowed to remain in the two boxes for 15 minutes. Then, residence times in the white box and in the black box were measured and compared to the values measured on the second day of the test. […]

[2] = test system: mice; assay: CPP test, recurrence of psychological dependence on cocaine after withdrawal; format: in vivo, mouse; conditions: cocaine alone on fifteenth day after 5 days of saline; p<0.05 vs saline
Description: The following CPP system was used to perform the test. The CPP system included two boxes, each having a dimension of 15 cm×15 cm×15 cm (width×depth×height). One of the boxes was made of white acryl sheets on three sides thereof, while the other was made of black acryl sheets on three sides thereof. […] Between the two boxes, a gray-colored pathway having a dimension of 3×3×7.5 cm was provided. Also, a Guillotine door capable of interrupting the pathway was provided. […] The test was performed under an illuminance maintained at 20 Lux.
Test animals were divided into four groups. Psychological saline was administered to the first test group (10 mice), and cocaine was administered to the remaining second test group, third test group and fourth test group (30 mice in total). On the ninth day of the test, development of a dependence on cocaine was checked, and then saline was administered alone for the subsequent 5 days to allow the mice to lose the cocaine dependence. […] Residence times in the CPP boxes were measured as described above.

[3] = test system: mice; assay: Locomotor activity, behavioral sensitization caused by cocaine (displacement from spontaneous movements); format: in vivo, mouse; conditions: p<0.01 vs saline
Description: Behavioral sensitization in recurrence of psychological dependence on cocaine was determined according to the locomoter activity. See [Yoo et al. 2003, Neurosci Lett. 433, pp 37-40].
Test animals were divided into four groups as follows: physiological saline was administered to the first test group, cocaine was administered to the second test group, cocaine +2.5 mg/kg of capsazepine (pretreatment) was administered to the third test group, and cocaine +5.0 mg/kg of capsazepine (pretreatment) was administered to the fourth test group.
A locomotor box was used for the test. […] The bottom of the box was covered with a black sheet having substantially the same size as the former.
Step (1)—Basic Test: On the first day, mice were allowed to move freely in the locomotor box for 30 minutes so that they were accommodated.
After the accommodation period, 15 mg/kg of cocaine was administered to the mice via intraperitoneal injection, and then the mice were allowed to remain in the locomotor box. The displacement from spontaneous movements of the mice was measured. […] On the sixth day of the test, the drug was administered again to the mice and the displacement from spontaneous movements was measured. […] Then, displacement from spontaneous movements was measured. […]

SMILES: COC(=O)[C@H]1[C@@H](OC(=O)c2ccccc2)C[C@@H]2CC[C@H]1N2C [cocaine]
- Development of psychological dependence (residence times in CPP boxes) [1]: showed a significant psychological dependence
- Recurrence of psychological dependence (residence times in CPP boxes) [2]: showed recurrence of a strong dependence on the drug
- Behavioral sensitization after drug withdrawal ([3]; cocaine 15 mg/kg alone, twelfth day after withdrawal period of five days): caused conditions of cocaine addiction
- Spontaneous movements and behavioral sensitization ([3]; cocaine 15 mg/kg i.p. repeated, alone, sixth day): significant increase in spontaneous movements and development of a strong behavioral sensitization phenomenon
